Data as given in PubChem BioAssay AID1259327 (Drosophila RNAi Screening Center, 2017).

Aim: 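Data from controls in screens of zinc and manganese toxicity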
Cells: Drosophila S2R+ cells
Knock-down reagent: long dsRNA against Drosophila genes
Timing: 5 days (water added on day 4, read one day later)
Conditions: water added as vehicle, no metal, one day before read-out
Measurement: 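Luciferase ATP signal per well, normalised to plate mean, duplicate average converted to z-score across plates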
Reading the numbers: ATP z-score: higher = more total ATP than typical wells; ATP luminescence: higher = more total ATP
Call rule: 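Called active when the ATP z-score exceeds 1.5 or falls below -1.5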
Calls: active = hit: ATP up or down; inactive = no clear ATP change
The deposit covers about 3,100 reagents; shown is a random part of them. 378 of all reagents (12%) count as active. 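Hits include both directions; z-score sign shows ATP rise or fall; raw luminescence values are not plate-normalised.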 Unmarked entries are inactive. A plus sign joins genes that one reagent is predicted to hit. Reagent sequences are not shown. Not stated in the record: the amount of reagent.

no.	target	DRSC id	ATP z-score, duplicate mean	ATP luminescence, replicate 1 (RLU)	ATP luminescence, replicate 2 (RLU)
1	Or19a	DRSC20684	1.29	8.47e5	9.21e5
2	CG2187	DRSC15425	-0.386	7.02e5	7.38e5
3	CG2187	DRSC25548	-0.881	7.05e5	7.27e5
4	Dh31-R	DRSC06669	-0.823	5.59e5	5.31e5
5	Dh31-R	DRSC23417	-0.333	8.04e5	7.63e5
6	CCHa2-R	DRSC04870	-0.562	4.90e5	6.47e5
7	CCHa2-R	DRSC04871	-0.381	5.17e5	6.53e5
8	CG11425	DRSC11657	0.31	9.48e5	9.25e5
9	CG11425	DRSC28400	-0.285	8.74e5	7.11e5
10	Tsp26A	DRSC03135	0.184	7.59e5	7.33e5
11	CG31717	DRSC01121	-0.463	6.87e5	6.98e5
12	Lcch3 + Ranbp16	DRSC39860	0.859	5.65e5	7.61e5
13	CG14232	DRSC19588	-0.0201	7.36e5	6.72e5
14	CG14232	DRSC27714	-1.31	8.89e5	1.01e6
15	Or45a	DRSC07487	-1.07	4.90e5	5.55e5
16	Or45a	DRSC27527	-0.198	8.13e5	8.77e5
17	List	DRSC06520	1.19	7.80e5	6.74e5
18	List	DRSC39801	-1.61 (active)	3.99e5	3.31e5
19	fz2	DRSC10087	0.483	7.56e5	8.11e5
20	fz2	DRSC11349	0.11	9.20e5	9.01e5
21	ninaD	DRSC02886	0.756	7.98e5	8.15e5
22	ninaD	DRSC24484	-0.105	8.07e5	8.68e5
23	CG2930	DRSC17730	0.688	8.20e5	7.35e5
24	CG2930	DRSC26303	1.32	1.13e6	8.94e5
25	Appl	DRSC27476	1.01	1.00e6	1.12e6
26	Appl	DRSC39441	-0.193	4.36e5	4.44e5
27	CG32320	DRSC21514	-2 (active)	4.12e5	4.09e5
28	CG32320	DRSC28106	-0.384	9.54e5	8.70e5
29	Syx16	DRSC20507	0.143	7.23e5	7.18e5
30	Syx16	DRSC27163	-1.29	9.20e5	1.05e6
31	Serinc	DRSC11296	-0.386	5.51e5	8.33e5
32	HisT	DRSC05051	0.318	7.17e5	8.41e5
33	HisT	DRSC06405	-0.0523	6.99e5	7.53e5
34	CG3592	DRSC18315	1.23	7.09e5	7.58e5
35	CG3592	DRSC39849	-0.651	4.68e5	3.96e5
36	CG7458	DRSC11829	0.0109	7.24e5	7.65e5
37	CG7458	DRSC21340	-0.919	5.56e5	4.46e5
38	tomboy20	DRSC14913	-0.34	2.72e5	7.56e5
39	mgl	DRSC17823	0.969	7.79e5	8.31e5
40	mgl	DRSC17859	-2.17 (active)	5.03e5	6.53e5
41	eag	DRSC19067	-1.5	4.66e5	5.02e5
42	eag	DRSC20328	0.0648	5.42e5	8.04e5
43	eag	DRSC28295	-0.174	1.02e6	9.94e5
44	CG7309	DRSC03045	-0.293	7.17e5	6.74e5
45	CG7309	DRSC27252	-1.72 (active)	8.71e5	1.06e6
46	Ir47a	DRSC06215	1.55 (active)	6.67e5	8.53e5
47	CG31103	DRSC22324	0.241	8.46e5	9.15e5
48	dsb	DRSC08542	2.61 (active)	8.08e5	9.05e5
49	CG6230	DRSC01989	0.183	4.20e5	5.69e5
50	CCKLR-17D1	DRSC20011	-0.659	6.10e5	7.36e5
51	CCKLR-17D1	DRSC20012	1.53 (active)	1.09e6	7.13e5
52	CCKLR-17D1	DRSC28081	-0.698	9.54e5	1.05e6
53	ATPsynbeta	DRSC17194	-0.233	6.54e5	5.55e5
54	boi	DRSC18425	-0.344	6.84e5	7.92e5
55	boi	DRSC25851	0.422	9.05e5	9.00e5
56	CG5823	DRSC15881	-0.157	7.18e5	6.62e5
57	CG5823	DRSC39656	1.25	4.64e5	6.39e5
58	Gr58b	DRSC04140	0.021	6.72e5	7.83e5
59	Gr58b	DRSC39737	1.11	5.03e5	5.80e5
60	Cftr	DRSC15872	0.451	7.93e5	7.13e5
61	Cftr	DRSC24655	1.03	1.03e6	9.28e5
62	ogre	DRSC18809	-0.298	6.89e5	6.61e5
63	ogre	DRSC24730	0.0726	8.18e5	9.01e5
64	Atg9	DRSC38118	0.259	5.68e5	6.36e5
65	Atg9	DRSC38119	-0.43	5.42e5	5.44e5
66	Or83a + CG1172	DRSC12357	1.72 (active)	1.02e6	1.21e6
67	Or83a + CG1172	DRSC39904	0.8	6.00e5	7.11e5
68	ics	DRSC29655	-0.0342	8.43e5	7.96e5
69	Sr-CIV	DRSC00575	-0.243	7.22e5	6.79e5
70	Sr-CIV	DRSC24930	0.804	9.76e5	8.68e5
71	N	DRSC18685	0.231	7.10e5	6.48e5
72	N	DRSC37611	1.21	7.24e5	6.39e5
73	nAChRbeta2	DRSC17010	-0.0463	7.19e5	6.83e5
74	Ir7c	DRSC18007	2.01 (active)	9.55e5	8.53e5
75	Ir7c	DRSC39710	0.452	4.70e5	5.23e5
76	Gr59b	DRSC04179	-0.308	6.82e5	7.04e5
77	PGRP-LB	DRSC14926	0.76	7.69e5	7.98e5
78	PGRP-LB	DRSC39813	0.716	5.37e5	5.21e5
79	santa-maria	DRSC00994	-0.0311	6.13e5	8.73e5
80	santa-maria	DRSC02180	0.412	4.43e5	5.77e5
81	CarT	DRSC03196	0.687	4.99e5	5.57e5
82	CarT	DRSC27070	-1.34	7.46e5	9.52e5
83	kkv	DRSC12315	0.03	7.07e5	7.62e5
84	Best3	DRSC09880	0.503	9.82e5	9.42e5
85	Best3	DRSC39740	1.92 (active)	5.82e5	6.10e5
86	CG3168	DRSC18287	-1.82 (active)	5.43e5	4.94e5
87	CG3168	DRSC25481	0.551	1.01e6	7.80e5

Entries listed so far with an active call:
target	DRSC id	ATP z-score, duplicate mean	ATP luminescence, replicate 1 (RLU)	ATP luminescence, replicate 2 (RLU)
List	DRSC39801	-1.61 (active)	3.99e5	3.31e5
CG32320	DRSC21514	-2 (active)	4.12e5	4.09e5
mgl	DRSC17859	-2.17 (active)	5.03e5	6.53e5
CG7309	DRSC27252	-1.72 (active)	8.71e5	1.06e6
Ir47a	DRSC06215	1.55 (active)	6.67e5	8.53e5
dsb	DRSC08542	2.61 (active)	8.08e5	9.05e5
CCKLR-17D1	DRSC20012	1.53 (active)	1.09e6	7.13e5
Or83a + CG1172	DRSC12357	1.72 (active)	1.02e6	1.21e6
Ir7c	DRSC18007	2.01 (active)	9.55e5	8.53e5
Best3	DRSC39740	1.92 (active)	5.82e5	6.10e5
CG3168	DRSC18287	-1.82 (active)	5.43e5	4.94e5
